This note sets out measurements from PubChem BioAssay AID2685 (National Center for Advancing Translational Sciences (NCATS), 2010).

The list shows a part of the results. These are further read-outs of the screen, such as a control signal, another cell line or another target. No call is given for them. The list favours compounds with an active or inconclusive main result. The note in brackets gives the kind of curve behind each potency; many fits are weak.

The nature of the assay: qHTS Assay for Lipid Storage Modulators in Drosophila S3 Cells.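 On cell number change: cells counted by Cell Tracker Red CMTPX staining in the red channel.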 The following applies: BODIPY lipid droplet fluorescence, 18-24 h; for cell number change: measured here: cell count max response, cells fed with added oleic acid. Put shortly: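 Laser-scanning cytometry quantifies lipid droplet accumulation (500–530 nm total intensity; droplet/cell object ratio) in oleic acid-fed (400 uM added) Drosophila S3 cells treated with a concentration series. 20 uM Triacsin C defined 100% inhibition.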
(In general: In qHTS, concentration-response curves come from the screen itself.)

The mark [1] stands for this setting: measured here: lipid fluorescence (Fed channel) AC50, cells fed with added oleic acid.
[2] abbreviates: measured here: cell number channel AC50, cells fed with added oleic acid.

Take `Cc1ccc(S(=O)(=O)CCC(=O)N(Cc2nnc(-c3ccc(Cl)cc3)o2)C2CC2)cc1`: the cell number change is -12.5%. The AC50 under setting [1] is 0.206 µM [falling, full curve, poor fit].

In the case of `CC1(C)CC(=O)C2=C(C1)N(CC1CCCO1)C(=O)C2(NC(=O)c1cccnc1)C(F)(F)F` (stereo not drawn), the cell number change was -22.5%. The concentration at half-maximal activity (AC50) under setting [2] was 0.00461 µM [falling, full curve, poor fit].

`CCNc1nc(N2CCOCC2)nc(N(c2ccccc2)c2ccccc2)n1`: the cell number change was -82.4%. The AC50 under setting [2] was 18.4 µM [falling, single point]. Further, the AC50 under setting [1] was 6.51 µM [falling, partial curve, poor fit].

As to `OC(CNC1CCCC1)COc1c(F)cc(Br)cc1F` (stereo not drawn), the cell number change is -8.45%.

With `COc1cccc(CNC(=O)CN(c2ccc(C(C)C)cc2)S(=O)(=O)c2c(C)noc2C)c1`, under setting [2], the AC50 was 0.00517 µM [rising, full curve, poor fit].

`COc1ccc(-n2nc3c(c2NC(=O)C24CC5CC(CC(C5)C2)C4)CS(=O)C3)cc1` (stereo not drawn): the cell number change is 11.6%. Besides, under setting [1], the AC50 is 16.4 µM [rising, single point].

Take `O=C(NCCc1ccccc1F)c1ccc2c(c1)OCCO2`: the cell number change was found to be 10.5%. Moreover, the AC50 under setting [1] was 6.51 µM [rising, partial curve, poor fit].

In the case of `Cc1ccc2occ(/C=N/NC(=O)c3ccc(Cl)cc3)c(=O)c2c1`, the cell number change stood at 20.9%. The AC50 under setting [1] is 1.58 µM [rising, full curve, poor fit].

In the case of `CCCC(C)NC(=O)CSCc1ccc(OC)cc1` (stereo not drawn), the cell number change is -13.3%. Also, the AC50 under setting [1] is 2 µM [falling, full curve].

Take `Cc1ccc(OCCOc2cccc3ccc(C)nc23)c([N+](=O)[O-])c1`: the cell number change is -1.54%.

For the molecule `N#Cc1c(NC(=O)COC(=O)c2ccc(F)cc2)sc2c1CCC2`, the cell number change was -14%. In addition, under setting [1], the AC50 was 0.0291 µM [falling, full curve, poor fit].

Consider `O=C(NC1CCCCC1)c1ccc(Cl)c(NC(=O)c2ccccc2F)c1`, for which the cell number change amounted to 8.31%. Under setting [1], the AC50 is 0.058 µM [rising, full curve, poor fit].

For `O=C(CSc1nc(=O)n2cc(Cl)ccc2n1)Nc1ccc2c(c1)OCO2`, the cell number change came to 33.5%. Further, under setting [2], the AC50 is 0.291 µM [rising, single point].

Regarding `COC(=O)c1ccc(C2Nc3ccccc3NC3=C2C(=O)CC(C)(C)C3)cc1` (stereo not drawn), the cell number change was found to be 7.61%. The AC50 under setting [1] was 29.1 µM [rising, single point].

In the case of `Cc1nn(C)c(C)c1/C=C/C(=O)O`, the cell number change is -18.3%. In addition, the AC50 under setting [2] is 0.082 µM [falling, full curve, poor fit]. Further, the half-maximal activity concentration (AC50) under setting [1] is 6.51 µM [falling, partial curve].

Regarding `COc1ccccc1-n1c(COc2ccccc2-c2ccccc2)nnc1SCC(=O)c1c(N)n(C)c(=O)n(C)c1=O`, the AC50 was 6.51 µM [rising, single point] under setting [2] and 6.51 µM [rising, single point] under setting [1].

On to `COc1cccc(-c2ncc3ccccc3c2COC(=O)N2CCCCC2)c1`, for which the cell number change worked out at 14.6%.

As to `Cc1cc(C)c(-n2c(SCc3nc4ccccc4s3)n[nH]c2=O)c(C)c1`, the cell number change was found to be 19.4%. For the same molecule, the AC50 under setting [2] was 0.164 µM [rising, full curve, poor fit].

As for `O=C(c1ccc(Cl)c(S(=O)(=O)Nc2ccccc2C(=O)N2CCc3ccccc3C2)c1)N1CCc2ccccc2C1`, the cell number change worked out at 19.6%. Further, under setting [1], the AC50 was 13 µM [rising, partial curve].

Regarding `Cc1ccc(Sc2nc(C)cc(C)c2S(C)(=O)=O)cc1`, the cell number change is 10.5%. Besides, under setting [1], the AC50 was 6.51 µM [rising, full curve, poor fit].

Turning to `CCn1ncc(C(=O)Nc2ccc(S(=O)(=O)N3CCCC3)cc2)c1C`, the cell number change was -1.48%. Besides, the AC50 under setting [1] was 0.731 µM [rising, full curve, poor fit].

For `O=C(/C=C/c1ccco1)N/C(=C\c1ccccc1)C(=O)NCCc1nc2ccccc2[nH]1`, the cell number change was -41.1%. In addition, under setting [2], the AC50 is 2.59 µM [rising, partial curve]. The AC50 under setting [1] is 6.51 µM [rising, single point].

On to `C/[N+]([O-])=C/c1c(OCc2ccc(Cl)cc2Cl)ccc2ccccc12`, for which the cell number change is -6.15%. Further, the AC50 under setting [2] is 0.58 µM [falling, single point]. The AC50 under setting [1] is 0.58 µM [falling, single point].

For `COc1ccc(N/C(C)=C2/C(=O)C(=O)N(CCO)C2c2ccc([N+](=O)[O-])cc2)cc1` (stereo not drawn), the cell number change is -12.1%. The half-maximal activity concentration (AC50) under setting [1] is 29.1 µM [falling, single point].

Take `Cc1onc(-c2ccccc2Cl)c1C(=O)NCc1ccccc1F`: the cell number change is -8.91%. Also, under setting [1], the AC50 was 29.1 µM [rising, single point].

As for `COc1ccc(OC)c(NS(=O)(=O)c2cccc3cccnc23)c1`, the cell number change was found to be 19.8%. For the same molecule, under setting [1], the half-maximal activity concentration (AC50) was 29.1 µM [falling, single point].

On to `CCCOc1nc2c(c(=O)n(C)c(=O)n2C)n1C`, for which the cell number change amounted to 9.57%. Further, under setting [1], the concentration at half-maximal activity (AC50) is 29.1 µM [rising, single point].

Consider `Cn1c(=O)c2ncn(CC(=O)NCCOc3ccccc3)c2n(C)c1=O`, for which the cell number change was 1.02%. Moreover, the half-maximal activity concentration (AC50) under setting [1] was 29.1 µM [rising, single point].

Consider `Cc1ccc(C[n+]2ccccc2)cc1`, for which the cell number change is -10.1%. Further, the concentration at half-maximal activity (AC50) under setting [1] is 32.6 µM [falling, single point].

In the case of `Cc1ccc2cccc(OCCCOc3ccccc3CO)c2n1`, the cell number change was -18.1%. For the same molecule, under setting [1], the half-maximal activity concentration (AC50) was 18.4 µM [rising, partial curve, poor fit].

Turning to `COc1ccc(-n2nc([N+](=O)[O-])c(=NCCc3ccccc3)n2O)cc1`, the cell number change was 1.06%. The AC50 under setting [1] is 2.31 µM [rising, single point].

For the molecule `c1cnc(N2CCSCC2)nc1`, the cell number change was determined as 1.04%. Also, the AC50 under setting [1] was 0.058 µM [falling, full curve, poor fit].

In the case of `O=C(CCn1cnnn1)Nc1cccc(F)c1`, the cell number change is -27.1%. Moreover, the AC50 under setting [2] is 3.66 µM [falling, single point]. In addition, the AC50 under setting [1] is 0.651 µM [falling, full curve].

For the molecule `N=c1ncn(CC(O)CN2CCOCC2)c2nc(N3CCOCC3)[nH]c12` (stereo not drawn), the cell number change is -12.6%. Besides, under setting [1], the AC50 was 3.26 µM [falling, partial curve].

Take `Cc1c(N2C(=O)CSC2c2ccc(F)cc2)c(=O)n(-c2ccccc2)n1C` (stereo not drawn): the cell number change was -8.86%. Moreover, the AC50 under setting [2] was 0.291 µM [rising, full curve, poor fit]. Also, the concentration at half-maximal activity (AC50) under setting [1] was 1.46 µM [rising, partial curve].

Turning to `O=C1CSC(c2ccccn2)N1c1ccc(F)cc1F` (stereo not drawn), the AC50 under setting [2] was 6.51 µM [falling, single point].

`CC(C)(C)C(=O)/C=C(\N)c1ccncc1`: the cell number change turned out to be 6.84%.

`CC(C(=O)Nc1ccccc1C(=O)O)n1c(C(F)(F)F)nc2ccccc21` (stereo not drawn): the cell number change came out at 29%.

As for `NC(=O)c1cc([N+](=O)[O-])ccc1NCc1ccc(N)cc1`, the cell number change came out at 0.528%. Moreover, under setting [1], the AC50 was 0.184 µM [falling, full curve, poor fit].

On to `Cc1ccc2nc(NC(=O)Cn3nc(C)c([N+](=O)[O-])c3C)sc2c1`, for which the cell number change is -1.84%. The AC50 under setting [2] is 0.651 µM [falling, full curve].

As to `O=C(CSc1nc2ccccc2o1)N/N=C/c1ccc(C(=O)O)cc1`, the cell number change is -14.4%. Under setting [2], the AC50 is 0.103 µM [falling, full curve, poor fit]. The half-maximal activity concentration (AC50) under setting [1] is 0.116 µM [falling, full curve, poor fit].

With `Cc1ccc(C)c(N2CCN(C(=O)CCCn3c(=O)c4cccn4c4cccnc43)CC2)c1`, the AC50 under setting [1] was 6.51 µM [falling, partial curve].

`COc1ccc2c(c1)cc1n2CCN=C1NCCO`: the cell number change is -74.6%. In addition, under setting [2], the AC50 is 20.6 µM [falling, partial curve]. Under setting [1], the AC50 is 29.1 µM [falling, single point].

On to `Cc1ccc(-c2noc(CCC(=O)Nc3cc(C)ccn3)n2)cc1`, for which the cell number change worked out at 15.6%. Under setting [1], the concentration at half-maximal activity (AC50) was 29.1 µM [falling, partial curve].

For `CCn1c2ccccc2c2cc(NC(=O)CN3CCCC3)ccc21`, the cell number change is 9.27%.

As for `Cc1c(C#N)c2ncn(CCCN(C)C)c(=O)c2n1-c1ccccc1`, the cell number change amounted to 0.75%. In addition, the AC50 under setting [1] is 0.92 µM [falling, full curve].

As for `Cc1cccc(C)c1N1CCN(CCn2c(=S)[nH]c3ccccc3c2=O)CC1`, the cell number change is -34%. In addition, under setting [2], the AC50 is 18.4 µM [falling, single point].

On to `O=C1c2cccc3cccc(c23)C(=O)N1OS(=O)(=O)c1ccc(Cl)cc1`, for which the cell number change was -69.8%. Besides, the half-maximal activity concentration (AC50) under setting [2] was 3.66 µM [falling, full curve]. The AC50 under setting [1] is 6.51 µM [falling, partial curve, poor fit].

Take `Cc1ccc(C2C(=O)c3ccccc3C2=O)cc1`: the cell number change is -43.1%. Further, under setting [2], the half-maximal activity concentration (AC50) is 0.00517 µM [falling, full curve, poor fit].

`CC(NC(=O)c1ccccc1F)C12CC3CC(CC(C3)C1)C2` (stereo not drawn): the cell number change was -50.7%. In addition, the AC50 under setting [2] is 16.4 µM [falling, partial curve]. For the same molecule, the AC50 under setting [1] was 18.4 µM [falling, single point].

For the molecule `CCC[C@H](CN[C@@H](CNC)[C@H](C)O)NCCc1ccc(OC)cc1`, the cell number change is 2.99%.

Take `O=C(OCC(=O)N(CCc1ccccc1)Cc1ccccc1)c1ccccc1O`: the cell number change was 108%. Also, the AC50 under setting [2] was 14.6 µM [rising, partial curve].

For the molecule `Cc1cc(C)n2nc(SCC(=O)N(CC(C)C)c3c(N)n(CC(C)C)c(=O)[nH]c3=O)nc2n1`, the cell number change turned out to be 4.51%. Besides, the AC50 under setting [1] is 13 µM [falling, partial curve].

Take `C#CCOc1c(Br)cc(/C=N\NC(=O)CN2CCOCC2)cc1OCC`: the cell number change came out at 8.27%. Besides, the half-maximal activity concentration (AC50) under setting [2] was 6.51 µM [rising, single point].

On to `O=C(Oc1ccccc1N1CCOCC1)c1ccccc1`, for which the cell number change was 27.2%. Besides, the AC50 under setting [1] was 4.61 µM [rising, full curve].

`N#C/C(=C\c1ccc2c(c1)OCCO2)C(=O)Nc1nccs1`: the cell number change was -35.2%. The AC50 under setting [2] is 32.6 µM [falling, single point]. Besides, under setting [1], the AC50 is 0.206 µM [falling, single point].

Turning to `O=C(O)CCC(NC(=S)Nc1ccccc1)C(=O)O` (stereo not drawn), the cell number change was -18.5%.

Turning to `Cc1ccc(CNCc2ccco2)cc1`, the cell number change was -2.38%. Under setting [1], the AC50 is 20.6 µM [rising, single point].

Take `Cc1ncc2c(c1OC(=O)c1ccccc1)COC(C)(C)OC2`: the cell number change was -0.23%. Moreover, the AC50 under setting [1] was 4.11 µM [rising, partial curve].

By AC50 is commonly meant the concentration at which the activity in the assay is half-maximal.
